# The campaign covered roughly 390,000 compounds. About 610 (0.16%) were called active. The shares of active, inactive and inconclusive entries below differ from those in the screen. Calls come from the whole dose curve; as a rule, active = well fitted inhibition curve with a large enough effect; inconclusive = small, poorly fitted or top-dose-only effect, or effect the other way, or another doubt; inactive = no such curve, though single readings can be large or run the other way. Potencies of inconclusive entries are doubtful fits and often do not repeat.
# Assay: Nrf2 qHTS screen for inhibitors: counterscreen for cytotoxicity
# Conditions: A549 ARE-Fluc cells, CellTiter-Fluor viability, 18-24 h; activity change, negative = cytotoxicity: at 46 µM (top of the series)
# How it was run: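 A549 ARE_Fluc cells in 5% FBS OPTI-MEM were exposed to compounds in concentration-response for 18-24 h at 37 deg C. Viability was read by CellTiter-Fluor fluorescence (Ex 405/Em 525) after 30 min, before the luciferase read.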
# % is set by controls: 0 for no effect and ±100 for the full control effect; potency is the fitted concentration of half-maximal effect.
Compound,"activity change, negative = cytotoxicity",Potency
COc1ccc2c(c1)c1ncn(CCc3ccccc3)c(=O)c1n2C,inactive: -17%,
CCn1nnc(NC(=O)c2cccc(-c3cc4ccccc4oc3=O)c2)n1,inactive: -23.4%,
COc1ccc(Nc2ncc3c(n2)CCN(Cc2sccc2C)C3)c(OC)c1,inactive: 0.982%,
NS(=O)(=O)c1ccc(CCNC(=O)CN2CCCCC2)cc1,inactive: -2.37%,
ClCc1nc2ccccc2c2ccccc12,inactive: -2.03%,
Cc1ccc(S(=O)(=O)N(CC(=O)Nc2cccnc2)c2cc(Cl)ccc2C)cc1,,"inconclusive: 29.1 µM [falling, single point]"
O=C(CC1SC(=Nc2ccccc2)N(CCc2ccccn2)C1=O)Nc1ccc(F)cc1 (stereo not drawn),,"inconclusive: 23.1 µM [falling, partial curve, poor fit]"
CCOc1cccc2sc(N(CCCN(C)C)C(=O)c3ccc(S(=O)(=O)N(C)Cc4ccccc4)cc3)nc12,,"inconclusive: 18.4 µM [falling, single point]"
O=C(NCCN1CCOCC1)c1cnn2c(-c3ccccc3)cc(-c3ccccc3)nc12,,"inconclusive: 25.9 µM [falling, single point]"
COc1ccc(CNC(=O)C(C)OC(=O)CN2C(=O)COc3ccccc32)cc1 (stereo not drawn),inactive: 4.33%,
Cc1[nH]c(=O)c(C(=O)/C=C/c2ccccc2F)c2c1CCCC2,,"inconclusive: 23.1 µM [falling, single point]"
CC(C)Cn1c(SCC(=O)N2CCCc3ccccc32)nc2ccccc2c1=O,,"inconclusive: 23.1 µM [falling, single point]"
COc1cccc(NC(=S)NCCC(c2ccccc2)c2ccccc2)c1,inactive: 9.36%,
COc1ccc(/C=c2\s/c(=C/C(=O)c3ccc(C)cc3)[nH]c2=O)cc1OC,,"inconclusive: 23.1 µM [falling, single point]"
Cc1cc(Nc2cccc(C(=O)O)c2)n2nc(C)nc2n1,,"inconclusive: 29.1 µM [activator, partial curve, poor fit]"
Cc1ccc(NC(=O)Cc2cc(C(=O)O)c3ccccc3n2)c(C)c1,,"inconclusive: 18.4 µM [falling, single point]"
O=C(CSc1ncc(-c2ccccc2)nn1)NCc1ccco1,inactive: 3.38%,
CCOc1cccc(C2C(C(=O)c3ccc(C)o3)=C(O)C(=O)N2c2nccs2)c1 (stereo not drawn),,"inconclusive: 25.9 µM [falling, partial curve, poor fit]"
CC(CNC(=O)COc1ccccc1)OC(=O)Nc1ccc(Cl)c(Cl)c1 (stereo not drawn),,"inconclusive: 29.1 µM [falling, single point]"
COC(=O)C(=Cc1ccc(-c2ccsc2C(=O)OC)o1)C(=O)OC,,"inconclusive: 29.1 µM [falling, single point]"
O=C(c1ccc(CSc2nc3ccncc3[nH]2)cc1)N1CCN(c2cccc(Cl)c2)CC1,inactive: -25.9%,
Cc1ccc(C(=O)N2CCN(c3ccc(NC(=O)COc4ccccc4C)cc3)CC2)cc1,,"inconclusive: 32.6 µM [falling, partial curve, poor fit]"
Cc1ccc(C2C=C(c3ccccc3)Nc3nc(NS(C)(=O)=O)nn32)cc1 (stereo not drawn),,"inconclusive: 18.4 µM [activator, partial curve, poor fit]"

Compound,"activity change, negative = cytotoxicity",Potency
Cc1ccc(-c2noc(-c3ccc(N4CCCC4)c([N+](=O)[O-])c3)n2)cc1,inactive: 5.24%,
c1cc2c(cc1C1=Nn3c(nnc3C3CCCCC3)SC1)OCO2,,"inconclusive: 32.6 µM [falling, single point]"
COc1ccc(NC(=O)NC(C(F)(F)F)C(F)(F)F)cc1,,"inconclusive: 2.06 µM [falling, partial curve, poor fit]"
Cc1noc(C)c1C(=O)N(CC(=O)NC1CCCC1)Cc1ccccc1F,,"inconclusive: 3.26 µM [falling, single point]"
CC(=O)N1CCC2(CC1)CC(=O)c1cc(OCC(=O)NCc3ccco3)ccc1O2,inactive: 16.5%,
Cc1cc(N2CCC(C(=O)Nc3ccc(F)cc3F)CC2)n2nc(C)c(-c3ccc(Cl)cc3)c2n1,inactive: -6.51%,
CC1(C)CC(=O)C2=C(C1)N1C(=C(C#N)C2c2ccc(Cl)cc2)N=C(N)c2ccccc21 (stereo not drawn),,"inconclusive: 29.1 µM [falling, single point]"
CCN(CC)CCOC(=O)c1ccc(NC(=O)CCCN2C(=O)/C(=C/c3cccs3)SC2=S)cc1,,"inconclusive: 20.6 µM [falling, single point]"
CC(C)(C)NC(=O)Nc1ccc2nccnc2c1,inactive: -4.35%,
CSCCC(=O)N1CCCC(N(C)CCc2ccccc2)C1 (stereo not drawn),,"inconclusive: 0.731 µM [activator, partial curve, poor fit]"
Cn1c(=O)c2c(nc(N3CCCCCC3)n2Cc2cccc3ccccc23)n(C)c1=O,,active: 23.1 µM
CCN1/C(=C/C=C/c2oc3ccc(-c4ccccc4)cc3[n+]2CC)Oc2ccc(-c3ccccc3)cc21,,active: 14.6 µM
CCOC(=O)c1ccc(N2C(=O)c3n[nH]c(-c4ccco4)c3C2c2ccccc2OC)cc1 (stereo not drawn),inactive: -21%,
C#CCN1CC(C)/C(=N/O)CC1C (stereo not drawn),,"inconclusive: 23.1 µM [activator, partial curve, poor fit]"
COc1ccc(CSc2nnnn2-c2ccc(O)cc2)cc1F,,"inconclusive: 16.4 µM [falling, partial curve, poor fit]"
CCOC(=O)c1c(S(=O)(=O)N2CCCC(C(=O)Nc3cccc(CC)c3)C2)c(C)n(CC)c1C (stereo not drawn),inactive: 5.11%,
CCc1nonc1NC(=O)COc1ccc(Cl)c(C)c1,inactive: -0.0034%,
CCCCNC(=O)CSc1nc2cc3c(cc2c(=O)n1CCC(=O)NCCc1ccc(OC)c(OC)c1)OCO3,inactive: 0.457%,
COc1cc(OC)cc(C(=O)NNC(=O)c2ccccn2)c1,,"inconclusive: 29.1 µM [falling, single point]"
COc1cccc(CN(C(=O)Cc2c[nH]c3ccccc23)C(C(=O)NC2CCCCC2)c2ccc(C)o2)c1 (stereo not drawn),,"inconclusive: 16.4 µM [falling, single point]"
COCc1cc(C2C(C(=O)c3ccco3)=C(O)C(=O)N2CCOCCO)ccc1O (stereo not drawn),,"inconclusive: 13 µM [falling, partial curve, poor fit]"
CCC(NC(=O)C1CCCC1)c1ccccc1 (stereo not drawn),,"inconclusive: 25.9 µM [activator, partial curve, poor fit]"
CC(C)(C)n1nnnc1C(c1ccccc1F)N(Cc1ccco1)CC1CCCO1 (stereo not drawn),,"inconclusive: 29.1 µM [falling, single point]"

# Pulled by structure from above (5):
Compound,"activity change, negative = cytotoxicity",Potency
CCN(CC)CCOC(=O)c1ccc(NC(=O)CCCN2C(=O)/C(=C/c3cccs3)SC2=S)cc1,,"inconclusive: 20.6 µM [falling, single point]"
Cc1cc(N2CCC(C(=O)Nc3ccc(F)cc3F)CC2)n2nc(C)c(-c3ccc(Cl)cc3)c2n1,inactive: -6.51%,
CC1(C)CC(=O)C2=C(C1)N1C(=C(C#N)C2c2ccc(Cl)cc2)N=C(N)c2ccccc21 (stereo not drawn),,"inconclusive: 29.1 µM [falling, single point]"
CCc1nonc1NC(=O)COc1ccc(Cl)c(C)c1,inactive: -0.0034%,
COc1cccc(CN(C(=O)Cc2c[nH]c3ccccc23)C(C(=O)NC2CCCCC2)c2ccc(C)o2)c1 (stereo not drawn),,"inconclusive: 16.4 µM [falling, single point]"

# (next part)

Compound,"activity change, negative = cytotoxicity",Potency
Cc1ccc(NC(=O)c2ccc(OCc3c(C)noc3C)cc2)cc1C,,"inconclusive: 23.1 µM [falling, single point]"
CC(=O)Oc1c(I)cc(I)cc1C(=O)Nc1ccc(Cl)cc1,,"inconclusive: 25.9 µM [falling, single point]"
CC(C)(C)NC(=O)C[C@H]1C[C@H](C(=O)N2CCOCC2)[C@@]2(CCC3CCCC3)c3[nH]c4ccc(Cl)cc4c3CCN2C1=O,,"inconclusive: 32.6 µM [falling, partial curve, poor fit]"
CCOC(=O)C1=C(COC(=O)C(CC)c2ccccc2)NC(=O)NC1C (stereo not drawn),inactive: -1.05%,
COc1ccc(-c2nc(-c3ccc4c(c3)OCO4)[nH]c2-c2ccc(OC)cc2)cc1,,"inconclusive: 29.1 µM [falling, single point]"
Cc1ccc(C)c(NC(=O)CN2C(=O)C(C)(C)c3ccccc32)c1,,"inconclusive: 20.6 µM [falling, partial curve, poor fit]"
Cc1ccc(NC(=O)CCc2nnc3n(C)c(=O)c4sccc4n23)cc1C,,"inconclusive: 32.6 µM [falling, partial curve, poor fit]"
COc1ccc(CC(=O)Nc2cccc(S(=O)(=O)N3CCCCCC3)c2)cc1OC,,"inconclusive: 9.2 µM [falling, partial curve]"
CCOc1ccc(NC(=O)C(Cc2ccccc2)N2C(=O)c3cccc4cccc(c34)C2=O)cc1 (stereo not drawn),inactive: 1.9%,
CCn1ncc(/C=N\NC(=O)c2csc3ccccc23)c1C,,"inconclusive: 16.4 µM [falling, partial curve, poor fit]"
CC(CC(=O)Nc1ncc([N+](=O)[O-])s1)c1ccccc1 (stereo not drawn),,"inconclusive: 18.4 µM [falling, partial curve, poor fit]"
O=C(CC12CC3CC(CC(C3)C1)C2)NC(=S)NCc1ccco1,,"inconclusive: 18.4 µM [activator, partial curve, poor fit]"
COc1ccc(CCNc2nc(-c3sc(C)nc3C)cs2)cc1OC,,"inconclusive: 32.6 µM [falling, partial curve, poor fit]"
COc1ccc(-c2n[nH]c(=S)o2)c(OC)c1,inactive: -2.84%,
Cc1cc(C)n(CCc2nc(-c3ccc(-c4ccccc4)cc3)cs2)n1,,"inconclusive: 25.9 µM [falling, partial curve, poor fit]"
CC(=O)Nc1ccc2nc(NC(=O)COc3ccccc3C)sc2c1,inactive: -2.95%,
CCC(c1nnnn1Cc1ccco1)N(Cc1ccccc1OC)Cc1cc2cc(C)ccc2[nH]c1=O (stereo not drawn),,"inconclusive: 29.1 µM [falling, partial curve, poor fit]"
CN(Cc1ccccc1)C(=O)Nc1ccc2c(c1)N(C)C(=O)c1ccccc1S2,,"inconclusive: 20.6 µM [falling, single point]"
NNC(=O)C(=O)/C=C1\NC2(CCCC2)Cc2ccccc21,inactive: -4.78%,
O=C(Nc1cc(Cl)ccc1-n1cncn1)c1ccco1,inactive: 1.8%,
CC1=CC(C)(C)N2C(=O)C(=O)c3cc(OC(=O)c4ccco4)cc1c32,inactive: 0.885%,
Cc1ccc(-c2nnc(Nc3cccc(O)c3)c3ccccc23)cc1S(=O)(=O)N1CCOCC1,,"inconclusive: 32.6 µM [falling, partial curve, poor fit]"

# Reference: PubChem BioAssay AID504648 (National Center for Advancing Translational Sciences (NCATS), 2011)
